# No constants are given. Whether binding was seen depends on the method and setting. In cells and extracts the contact can be indirect. Some binding calls cover weakened binding; strength is not graded here. Where a sequence is shown, tags or fusion partners need not be part of it.
# Chains of the proteins cited; added tags and fusions are not shown.
# UniProt Q15717: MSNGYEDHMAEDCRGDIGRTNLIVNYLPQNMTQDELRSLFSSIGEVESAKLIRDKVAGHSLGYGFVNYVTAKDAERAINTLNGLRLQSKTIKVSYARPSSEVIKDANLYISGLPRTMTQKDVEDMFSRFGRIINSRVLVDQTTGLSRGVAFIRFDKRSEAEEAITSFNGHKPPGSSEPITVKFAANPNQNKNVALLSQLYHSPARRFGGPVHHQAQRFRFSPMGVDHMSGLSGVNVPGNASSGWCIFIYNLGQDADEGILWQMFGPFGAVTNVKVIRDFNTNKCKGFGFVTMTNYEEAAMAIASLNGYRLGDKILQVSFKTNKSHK
# Target: T1, FLAG-tagged DND1 wild-type (Dead End, full-length human protein 1-353) (human) (UniProt Q8IYX4)
# T1 sequence: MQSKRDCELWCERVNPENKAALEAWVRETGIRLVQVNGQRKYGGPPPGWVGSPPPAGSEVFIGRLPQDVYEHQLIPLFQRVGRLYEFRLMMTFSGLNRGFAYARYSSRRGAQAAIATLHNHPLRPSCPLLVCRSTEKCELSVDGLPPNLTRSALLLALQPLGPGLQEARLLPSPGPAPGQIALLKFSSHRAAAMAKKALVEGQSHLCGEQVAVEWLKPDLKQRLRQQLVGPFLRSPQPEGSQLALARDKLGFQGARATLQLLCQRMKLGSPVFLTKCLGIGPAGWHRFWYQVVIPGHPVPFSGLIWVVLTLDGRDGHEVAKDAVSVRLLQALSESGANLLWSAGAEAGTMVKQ
# Assay: co-IP; same FLAG-M2 immunoprecipitation from transfected HEK293T lysate; beads washed twice in IP-Lysis buffer and five times in 1x TBS pH 7.4, eluted with 0.1 M glycine pH 3.0; western blot
substance,measurement,value
ELAVL1/HuR (from UniProt Q15717 1-326),binding,binds
